Test results taken from PubChem BioAssay AID540276 (National Center for Advancing Translational Sciences (NCATS), 2011).
The whole screen tested about 300,000 compounds, of which about 5,400 (1.8%) were called active. The shares of active, inactive and inconclusive entries below differ from those in the screen. Calls come from the whole dose curve; tested in HEK293 cells. Potencies beside an inconclusive call are fits to weak or partial responses and may not hold up.
Potency is the fitted concentration of half-maximal effect.

Test: qHTS for inhibitors of binding or entry into cells for Marburg Virus
Conditions: Marburg virus pseudotyped entry inhibition, cell reporter; series mostly up to 37.8 µM
For `O=C(Nc1ccccc1O)c1ccc(NC(=O)C2CC2)cc1`, the Potency was inconclusive: 6.31 µM [activator, single point]. In the case of `O=C(CCNC(=O)c1ccc([N+](=O)[O-])cc1)NCCc1ccccc1`, the Potency is reported as “inactive”. For `C=CCOc1ccccc1CNCCc1ccc(S(N)(=O)=O)cc1`, the Potency was inconclusive: 7.94 µM [inhibitor, partial curve]. With `Cc1ccc(NS(=O)(=O)c2ccc(C(=O)NC3CCN(Cc4ccccc4)CC3)cc2)cc1` the Potency was inconclusive: 10 µM [inhibitor, partial curve]. In the case of `CCOc1ccc(NC(=O)Cn2c(=O)oc3cc(S(=O)(=O)N4CCC(C)CC4)ccc32)cc1`, the Potency is reported as “inactive”. In the case of `Cn1cc(C(=O)C(=O)N2CCCc3ccccc32)c2ccccc21`, the Potency is reported as inconclusive: 0.708 µM [inhibitor, full curve]. For `O=C(c1ccc(Cl)cc1)c1ccc(OCC(O)CN2CCCCC2)cc1` (centres undefined), the Potency was inconclusive: 35.5 µM [inhibitor, single point]. In the case of `CC(C)(C)c1ccc(/C=N/N2CCN(c3ccccn3)CC2)cc1`, the Potency is reported as “inactive”. With `CN1CC(C(=O)c2ccc(Cl)cc2)C(c2ccccc2F)C1` (centres undefined) the Potency was inconclusive: 35.5 µM [inhibitor, single point]. In the case of `O=C(O)c1ccc(COc2ccc(Cl)cc2)o1`, the Potency is reported as “inactive”. For `Cc1cc(C(=O)Cn2nnc3ccccc3c2=O)c(C)n1Cc1cccs1`, the Potency was inconclusive: 29.1 µM [inhibitor, single point]. For `CN(C)CCC(C(=O)c1ccccc1)c1ccccn1` (centres undefined), the Potency was inconclusive: 0.355 µM [activator, partial curve, poor fit]. For `c1ccc2sc(N3CCCN(Cc4nc(-c5cnccn5)no4)CC3)nc2c1`, the Potency was inconclusive: 22.4 µM [inhibitor, partial curve, poor fit]. For `CCCCNC(=O)c1cc(-c2ccc(OC)cc2)on1`, the Potency was inconclusive: 4.11 µM [activator, single point]. In the case of `O=C1C2CSCN2C(=O)CN1CCCN1CCN(C(c2ccccc2)c2ccccc2)CC1` (centres undefined), the Potency is reported as inconclusive: 8.2 µM [inhibitor, single point]. In the case of `Cc1ccccc1Nc1nc(N)nc(COC(=O)C2CCCCC2)n1`, the Potency is reported as “inactive”. For `COc1cc(/C=N/N2C(=O)C3C4c5ccccc5C(c5ccccc54)C3C2=O)ccc1O` (centres undefined), the Potency was inconclusive: 0.112 µM [inhibitor, full curve, poor fit]. For `O=C(NCc1ccco1)C(c1ccco1)N(C(=O)Cn1nnc2ccccc21)c1ccc2c(c1)CCC2` (centres undefined), the Potency was inconclusive: 17.8 µM [inhibitor, partial curve, poor fit]. For `O=C(c1cc(F)cc(F)c1)N1CCC(c2nc(-c3ccc(S(=O)(=O)N4CCCC4)cc3)no2)CC1`, the Potency was “inactive”. With `O=C(Nc1ccc(NC(=O)c2cc3ccccc3o2)cc1)c1ccc2c(c1)OCCO2` the Potency was inconclusive: 11.2 µM [inhibitor, partial curve, poor fit]. With `CCOc1ccc2nc(NC(=O)Cn3c(C)csc3=O)sc2c1` the Potency was inconclusive: 0.631 µM [activator, full curve]. In the case of `Cn1c(=O)cc(SCC(=O)NCCCN2CCN(c3ccccc3F)CC2)c2ccccc21`, the Potency is reported as inconclusive: 16.4 µM [inhibitor, single point]. With `CCOc1ccccc1NC(=O)N1CCC(NC(=O)c2ccccc2C)CC1` the Potency was inconclusive: 1 µM [inhibitor, full curve, poor fit]. For `COc1ccc(-c2cc(C(=O)N(C)Cc3ccc(F)cc3)c3ccccc3n2)cc1OC`, the Potency was inconclusive: 35.5 µM [inhibitor, single point]. For `Cc1ccccc1-n1ncc2c(SCC(=O)NCc3cccs3)ncnc21`, the Potency was inconclusive: 8.91 µM [inhibitor, partial curve, poor fit]. In the case of `O=C(CCC1CCCN(C(=O)c2cccs2)C1)N1CCN(c2ccccn2)CC1` (centres undefined), the Potency is reported as inconclusive: 35.5 µM [inhibitor, single point]. With `CC1CCCCC1NC(=O)c1cc2ccccc2o1` (centres undefined) the Potency was “inactive”. In the case of `CN(C)C(=O)CN1CCN(Cc2nc(CC3CC3)no2)CC1`, the Potency is reported as “inactive”. In the case of `CN(C)Cc1c(O)ccc2c3c(c(=O)oc12)CCCCC3`, the Potency is reported as inconclusive: 3.16 µM [activator, single point]. For `CCOC(=O)c1ccc(S(=O)(=O)N2CC(=O)Nc3ccccc32)cc1`, the Potency was inconclusive: 18.3 µM [inhibitor, partial curve, poor fit]. For `COc1ccc(N(C(=O)c2ccncc2)S(=O)(=O)c2cccc([N+](=O)[O-])c2)cc1`, the Potency was “inactive”. With `COc1ccc(C(=O)NNC(=O)c2snnc2C)cc1` the Potency was “inactive”. For `O=C(Nc1ccccc1F)c1ccc(C(=O)c2ccccc2)cc1`, the Potency was inconclusive: 2.82 µM [activator, partial curve]. For `O=C(Nc1ccc(C(=O)Oc2ccccc2)c(O)c1)c1ccco1`, the Potency was “inactive”. With `Cc1ccc(NC(=O)Cc2nnc(N)s2)cc1` the Potency was inconclusive: 0.891 µM [inhibitor, full curve, poor fit]. With `Cc1ccc2nc(-c3ccc(NC(=S)NC(=O)C(C)C)cc3)sc2c1` the Potency was “inactive”. For `COc1ccc(CCNCC2C(Oc3ccc(Cl)cc3)C(=O)N2c2ccccc2C)cc1OC` (centres undefined), the Potency was active: 11.2 µM. In the case of `COc1ccc(OC)c2[nH]c(=O)c(CCNC(=O)c3ccc4c(c3)OCO4)cc12`, the Potency is reported as inconclusive: 35.5 µM [inhibitor, single point]. In the case of `COc1cc(C)ccc1OCCOCCOc1cccc2ccc(C)nc12`, the Potency is reported as inconclusive: 7.08 µM [inhibitor, partial curve, poor fit]. For `CC(C)c1nnc(NC(=O)CC(=O)Nc2ccccc2C(=O)O)s1`, the Potency was inconclusive: 14.1 µM [inhibitor, partial curve, poor fit]. In the case of `Cc1cccc(NC(=O)CN2C(=S)NC(C)(C)CC2C)c1` (centres undefined), the Potency is reported as “inactive”. For `Cc1ccc(-n2[nH]c(C)c(/C=N/N3C(=O)c4cccc5cccc(c45)C3=O)c2=O)cc1`, the Potency was inconclusive: 25.1 µM [inhibitor, single point]. With `Cc1ccccc1Nc1c(-c2ccncc2)nc2ccc(Cl)cn12` the Potency was inconclusive: 4.47 µM [activator, single point]. For `O=C(NCCO)C1CCN(C(=O)c2ccc(-c3ccccc3)cc2)CC1`, the Potency was inconclusive: 3.16 µM [activator, partial curve].
